Protein sequences, listed by entry. Tags and fused reporters are not part of them. Residues count along the entry.
UniProt P29323, residues 19-1055: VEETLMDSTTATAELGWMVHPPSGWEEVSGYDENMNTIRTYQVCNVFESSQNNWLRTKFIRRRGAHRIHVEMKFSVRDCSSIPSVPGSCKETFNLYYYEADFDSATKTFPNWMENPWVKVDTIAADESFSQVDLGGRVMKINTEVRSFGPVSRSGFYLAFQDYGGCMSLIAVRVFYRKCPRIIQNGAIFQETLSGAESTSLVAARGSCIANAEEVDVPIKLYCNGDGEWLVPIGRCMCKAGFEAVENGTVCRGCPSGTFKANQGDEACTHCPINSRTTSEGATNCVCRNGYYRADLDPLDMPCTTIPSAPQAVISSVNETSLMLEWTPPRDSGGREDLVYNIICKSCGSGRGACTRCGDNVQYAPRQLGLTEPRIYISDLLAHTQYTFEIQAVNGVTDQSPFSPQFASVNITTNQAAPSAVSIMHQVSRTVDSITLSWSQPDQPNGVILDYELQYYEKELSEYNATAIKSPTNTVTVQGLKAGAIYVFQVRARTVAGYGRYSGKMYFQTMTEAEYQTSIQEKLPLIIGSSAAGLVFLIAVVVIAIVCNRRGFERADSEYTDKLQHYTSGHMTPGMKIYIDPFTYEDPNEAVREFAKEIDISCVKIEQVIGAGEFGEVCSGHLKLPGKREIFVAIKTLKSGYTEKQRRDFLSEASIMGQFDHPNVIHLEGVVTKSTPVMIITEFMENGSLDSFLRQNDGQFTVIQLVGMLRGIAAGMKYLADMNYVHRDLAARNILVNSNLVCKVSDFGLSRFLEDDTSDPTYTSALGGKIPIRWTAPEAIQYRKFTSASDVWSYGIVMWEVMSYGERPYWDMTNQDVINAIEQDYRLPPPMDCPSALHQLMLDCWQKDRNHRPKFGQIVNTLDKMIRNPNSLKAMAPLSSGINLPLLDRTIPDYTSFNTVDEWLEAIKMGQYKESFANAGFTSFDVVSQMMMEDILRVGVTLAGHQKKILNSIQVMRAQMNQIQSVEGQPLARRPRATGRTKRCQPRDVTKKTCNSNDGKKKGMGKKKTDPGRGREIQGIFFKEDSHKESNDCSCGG
UniProt P46108: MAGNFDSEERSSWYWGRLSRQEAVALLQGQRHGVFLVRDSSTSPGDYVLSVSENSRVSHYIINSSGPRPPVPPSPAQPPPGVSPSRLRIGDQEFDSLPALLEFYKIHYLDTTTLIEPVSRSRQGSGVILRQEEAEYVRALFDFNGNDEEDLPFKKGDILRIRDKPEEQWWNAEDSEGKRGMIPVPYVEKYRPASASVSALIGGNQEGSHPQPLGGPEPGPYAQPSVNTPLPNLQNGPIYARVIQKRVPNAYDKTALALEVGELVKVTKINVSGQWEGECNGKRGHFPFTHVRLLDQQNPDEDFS
UniProt Q9H3S7: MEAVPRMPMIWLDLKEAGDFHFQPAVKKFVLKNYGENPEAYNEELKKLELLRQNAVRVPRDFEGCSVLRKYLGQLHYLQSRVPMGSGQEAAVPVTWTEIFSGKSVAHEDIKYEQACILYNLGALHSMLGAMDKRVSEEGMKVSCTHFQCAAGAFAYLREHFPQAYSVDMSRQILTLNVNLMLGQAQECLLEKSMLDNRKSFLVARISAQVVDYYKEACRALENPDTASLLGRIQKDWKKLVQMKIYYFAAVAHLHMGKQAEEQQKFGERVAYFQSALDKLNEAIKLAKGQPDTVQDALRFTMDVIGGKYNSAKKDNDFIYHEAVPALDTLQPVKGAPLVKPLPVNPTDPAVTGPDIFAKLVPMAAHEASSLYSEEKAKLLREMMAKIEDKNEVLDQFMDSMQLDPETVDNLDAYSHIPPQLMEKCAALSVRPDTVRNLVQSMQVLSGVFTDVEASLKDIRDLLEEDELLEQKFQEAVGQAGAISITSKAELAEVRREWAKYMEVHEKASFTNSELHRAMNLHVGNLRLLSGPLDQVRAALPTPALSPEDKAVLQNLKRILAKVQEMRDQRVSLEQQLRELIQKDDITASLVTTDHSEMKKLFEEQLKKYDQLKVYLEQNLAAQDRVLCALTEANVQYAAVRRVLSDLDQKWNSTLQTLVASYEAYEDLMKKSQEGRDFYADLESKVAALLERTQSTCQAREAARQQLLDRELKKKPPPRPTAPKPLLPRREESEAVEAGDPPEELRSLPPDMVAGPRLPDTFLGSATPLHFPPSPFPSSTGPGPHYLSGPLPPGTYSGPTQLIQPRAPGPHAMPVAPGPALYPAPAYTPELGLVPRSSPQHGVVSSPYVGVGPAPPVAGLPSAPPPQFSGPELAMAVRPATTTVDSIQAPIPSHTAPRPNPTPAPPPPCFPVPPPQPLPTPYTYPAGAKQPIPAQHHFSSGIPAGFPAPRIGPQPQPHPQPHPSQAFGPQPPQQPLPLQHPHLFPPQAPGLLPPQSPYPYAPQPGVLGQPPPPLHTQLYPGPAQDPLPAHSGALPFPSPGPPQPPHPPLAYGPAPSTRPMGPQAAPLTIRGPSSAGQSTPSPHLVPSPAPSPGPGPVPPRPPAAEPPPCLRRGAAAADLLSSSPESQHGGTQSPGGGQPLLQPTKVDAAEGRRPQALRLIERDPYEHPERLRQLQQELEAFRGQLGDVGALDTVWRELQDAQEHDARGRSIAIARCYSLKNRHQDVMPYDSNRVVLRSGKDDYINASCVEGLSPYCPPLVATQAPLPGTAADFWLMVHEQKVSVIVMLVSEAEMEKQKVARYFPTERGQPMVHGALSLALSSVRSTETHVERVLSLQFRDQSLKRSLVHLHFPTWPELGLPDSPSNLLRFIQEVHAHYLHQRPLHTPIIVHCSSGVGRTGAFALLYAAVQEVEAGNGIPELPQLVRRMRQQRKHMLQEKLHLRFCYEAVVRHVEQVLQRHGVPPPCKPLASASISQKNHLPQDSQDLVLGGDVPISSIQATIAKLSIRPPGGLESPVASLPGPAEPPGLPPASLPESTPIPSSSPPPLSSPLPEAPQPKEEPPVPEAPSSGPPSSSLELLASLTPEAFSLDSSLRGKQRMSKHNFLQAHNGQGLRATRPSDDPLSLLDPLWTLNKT
UniProt O43639: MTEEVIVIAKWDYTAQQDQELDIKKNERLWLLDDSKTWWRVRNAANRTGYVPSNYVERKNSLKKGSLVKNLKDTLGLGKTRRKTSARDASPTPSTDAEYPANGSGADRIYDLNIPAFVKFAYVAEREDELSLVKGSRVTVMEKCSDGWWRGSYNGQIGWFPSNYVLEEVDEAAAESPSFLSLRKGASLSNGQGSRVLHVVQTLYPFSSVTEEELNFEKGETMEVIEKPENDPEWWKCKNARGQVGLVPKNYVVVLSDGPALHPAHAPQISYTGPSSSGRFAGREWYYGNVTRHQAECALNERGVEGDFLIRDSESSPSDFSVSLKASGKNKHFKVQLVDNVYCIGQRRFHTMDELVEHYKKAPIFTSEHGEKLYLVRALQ
UniProt Q04721, residues 26-2471: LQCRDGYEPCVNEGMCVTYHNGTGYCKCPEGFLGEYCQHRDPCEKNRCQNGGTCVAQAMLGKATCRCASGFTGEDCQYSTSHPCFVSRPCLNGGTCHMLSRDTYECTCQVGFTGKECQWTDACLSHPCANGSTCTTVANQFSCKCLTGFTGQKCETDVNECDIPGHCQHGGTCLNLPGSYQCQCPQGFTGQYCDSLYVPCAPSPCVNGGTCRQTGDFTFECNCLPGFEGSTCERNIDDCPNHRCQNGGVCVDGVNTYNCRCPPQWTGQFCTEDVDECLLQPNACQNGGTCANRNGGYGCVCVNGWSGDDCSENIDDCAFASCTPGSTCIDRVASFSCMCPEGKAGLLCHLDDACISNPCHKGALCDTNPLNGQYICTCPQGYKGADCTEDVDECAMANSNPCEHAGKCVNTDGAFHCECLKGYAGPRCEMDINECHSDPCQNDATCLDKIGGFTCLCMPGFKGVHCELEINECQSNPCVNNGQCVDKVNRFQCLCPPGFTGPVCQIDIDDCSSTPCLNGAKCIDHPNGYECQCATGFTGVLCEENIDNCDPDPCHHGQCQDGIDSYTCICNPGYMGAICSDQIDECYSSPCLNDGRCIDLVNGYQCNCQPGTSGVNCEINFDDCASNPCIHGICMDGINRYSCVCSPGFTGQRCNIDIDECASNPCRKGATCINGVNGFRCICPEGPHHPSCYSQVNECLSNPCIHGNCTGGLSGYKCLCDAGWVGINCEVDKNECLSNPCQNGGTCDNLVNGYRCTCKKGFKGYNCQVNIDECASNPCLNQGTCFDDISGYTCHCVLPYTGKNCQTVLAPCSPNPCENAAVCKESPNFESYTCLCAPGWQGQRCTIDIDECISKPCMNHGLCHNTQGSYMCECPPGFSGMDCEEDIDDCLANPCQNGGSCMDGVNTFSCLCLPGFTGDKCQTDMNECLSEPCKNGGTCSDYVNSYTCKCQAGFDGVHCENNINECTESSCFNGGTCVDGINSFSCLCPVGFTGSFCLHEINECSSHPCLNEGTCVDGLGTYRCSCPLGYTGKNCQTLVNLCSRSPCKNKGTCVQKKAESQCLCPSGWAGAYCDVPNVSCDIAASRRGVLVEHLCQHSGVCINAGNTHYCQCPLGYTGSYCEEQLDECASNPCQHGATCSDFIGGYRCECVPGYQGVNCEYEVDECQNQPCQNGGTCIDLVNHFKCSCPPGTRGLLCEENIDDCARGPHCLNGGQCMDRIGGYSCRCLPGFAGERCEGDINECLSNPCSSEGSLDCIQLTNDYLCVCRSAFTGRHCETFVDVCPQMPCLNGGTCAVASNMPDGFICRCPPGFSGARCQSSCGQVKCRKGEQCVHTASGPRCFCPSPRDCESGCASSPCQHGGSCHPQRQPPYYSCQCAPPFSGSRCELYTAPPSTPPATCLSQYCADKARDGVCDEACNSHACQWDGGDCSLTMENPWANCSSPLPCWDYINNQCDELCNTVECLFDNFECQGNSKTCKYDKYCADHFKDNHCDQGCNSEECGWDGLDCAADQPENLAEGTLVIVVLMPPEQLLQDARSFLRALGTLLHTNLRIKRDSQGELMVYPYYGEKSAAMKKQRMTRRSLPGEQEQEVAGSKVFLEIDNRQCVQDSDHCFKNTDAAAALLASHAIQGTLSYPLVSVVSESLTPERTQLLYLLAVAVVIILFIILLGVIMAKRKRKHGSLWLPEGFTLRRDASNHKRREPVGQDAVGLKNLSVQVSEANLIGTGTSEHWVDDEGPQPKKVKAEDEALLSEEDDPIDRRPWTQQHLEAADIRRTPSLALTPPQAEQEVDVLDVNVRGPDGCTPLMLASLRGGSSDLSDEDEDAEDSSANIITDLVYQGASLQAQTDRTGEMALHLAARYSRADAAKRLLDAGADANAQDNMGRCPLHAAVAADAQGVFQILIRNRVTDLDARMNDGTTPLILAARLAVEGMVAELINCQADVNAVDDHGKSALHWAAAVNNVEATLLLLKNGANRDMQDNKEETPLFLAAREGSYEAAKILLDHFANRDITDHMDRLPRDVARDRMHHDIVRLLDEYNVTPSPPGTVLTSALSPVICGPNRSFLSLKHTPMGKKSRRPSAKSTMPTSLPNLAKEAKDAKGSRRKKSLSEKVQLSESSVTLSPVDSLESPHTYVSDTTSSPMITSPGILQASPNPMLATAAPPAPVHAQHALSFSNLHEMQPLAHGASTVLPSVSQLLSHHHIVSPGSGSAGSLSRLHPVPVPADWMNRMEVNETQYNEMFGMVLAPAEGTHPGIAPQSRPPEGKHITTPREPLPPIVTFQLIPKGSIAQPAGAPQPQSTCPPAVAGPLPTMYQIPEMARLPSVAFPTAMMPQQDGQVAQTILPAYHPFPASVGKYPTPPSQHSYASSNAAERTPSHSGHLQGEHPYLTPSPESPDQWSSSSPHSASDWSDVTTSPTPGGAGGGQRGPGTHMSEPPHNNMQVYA
UniProt Q96T51: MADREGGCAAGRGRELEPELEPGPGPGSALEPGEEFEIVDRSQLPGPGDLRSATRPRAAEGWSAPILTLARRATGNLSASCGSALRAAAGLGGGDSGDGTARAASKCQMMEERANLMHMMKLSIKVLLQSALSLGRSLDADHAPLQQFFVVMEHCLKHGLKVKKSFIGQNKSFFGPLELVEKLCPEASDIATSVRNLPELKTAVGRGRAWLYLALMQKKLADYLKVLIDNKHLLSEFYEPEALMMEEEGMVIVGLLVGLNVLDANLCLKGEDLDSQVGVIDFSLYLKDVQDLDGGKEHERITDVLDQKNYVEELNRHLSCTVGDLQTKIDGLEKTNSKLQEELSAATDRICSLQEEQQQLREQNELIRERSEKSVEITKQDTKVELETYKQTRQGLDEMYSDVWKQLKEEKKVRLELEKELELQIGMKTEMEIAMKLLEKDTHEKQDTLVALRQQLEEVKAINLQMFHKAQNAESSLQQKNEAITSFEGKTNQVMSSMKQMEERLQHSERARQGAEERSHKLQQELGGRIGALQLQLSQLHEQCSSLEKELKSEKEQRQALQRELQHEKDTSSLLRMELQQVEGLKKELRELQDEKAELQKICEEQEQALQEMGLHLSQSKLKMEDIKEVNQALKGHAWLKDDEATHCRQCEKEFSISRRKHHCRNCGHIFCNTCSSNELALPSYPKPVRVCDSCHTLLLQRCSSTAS

No constants are given. Whether binding was seen depends on the method and setting. In cells and extracts the contact can be indirect. Here binding means that the protein was enriched with, or labelled near, the bait; the list need not be complete.
What follows are substances tested against EphB2-BirA*-FLAG (UniProt P29323) (assay: proximity labelling; BioID: EphB2-BirA*-FLAG induced with tetracycline in Flp-In T-REx HEK293; 6 h with 50 uM biotin and pre-clustered eB2-Fc or Fc (1.5 ug/mL) or medium; RIPA lysis, streptavidin pull-down, mass spectrometry; SAINT against BirA*-FLAG-EGFP and empty vector, BFDR <= 0.01).
In the case of CRK (from UniProt P46108 1-304), the binding is reported as “binds”.
With “HD-PTP (endogenous, HEK293) (from UniProt Q9H3S7 1-1636)” the binding was “binds”.
“Nck adaptor protein NCK2 (from UniProt O43639 1-380)” was tested, and the binding was “binds”.
For Notch2 (from UniProt Q04721 26-2471), the binding was “binds”.
Pik3r1 (from UniProt P27986 1-724) was tested, and the binding was “binds”.
With “RUN and FYVE domain-containing protein 1 (RUFY1) (from UniProt Q96T51 1-708)” the binding was “binds”.

From PMC6697728
